Experimental data reported in publication PMC12613816, “Discovery of Novel Isoxazole-Based Small-Molecule Toll-Like Receptor 8 Antagonists” (Journal of Medicinal Chemistry, 2025).
These are yes or no findings as the source states them, for the method shown. Binding seen in cells or lysates may run through a third protein. Some entries that bind do so weakly or less than the wild type.

Chains of the proteins cited; added tags and fusions are not shown.
UniProt Q99836: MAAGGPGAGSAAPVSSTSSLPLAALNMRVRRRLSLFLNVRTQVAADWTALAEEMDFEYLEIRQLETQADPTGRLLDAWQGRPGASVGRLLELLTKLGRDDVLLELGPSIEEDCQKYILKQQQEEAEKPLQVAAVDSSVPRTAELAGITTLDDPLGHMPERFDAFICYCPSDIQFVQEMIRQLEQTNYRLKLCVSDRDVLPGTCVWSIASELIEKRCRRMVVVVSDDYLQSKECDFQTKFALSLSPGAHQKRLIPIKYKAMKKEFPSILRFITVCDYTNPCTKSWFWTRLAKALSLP

Target: T1, Toll-like receptor 8 (human (endogenous in THP-1)) (UniProt Q9NR97)
T1 sequence: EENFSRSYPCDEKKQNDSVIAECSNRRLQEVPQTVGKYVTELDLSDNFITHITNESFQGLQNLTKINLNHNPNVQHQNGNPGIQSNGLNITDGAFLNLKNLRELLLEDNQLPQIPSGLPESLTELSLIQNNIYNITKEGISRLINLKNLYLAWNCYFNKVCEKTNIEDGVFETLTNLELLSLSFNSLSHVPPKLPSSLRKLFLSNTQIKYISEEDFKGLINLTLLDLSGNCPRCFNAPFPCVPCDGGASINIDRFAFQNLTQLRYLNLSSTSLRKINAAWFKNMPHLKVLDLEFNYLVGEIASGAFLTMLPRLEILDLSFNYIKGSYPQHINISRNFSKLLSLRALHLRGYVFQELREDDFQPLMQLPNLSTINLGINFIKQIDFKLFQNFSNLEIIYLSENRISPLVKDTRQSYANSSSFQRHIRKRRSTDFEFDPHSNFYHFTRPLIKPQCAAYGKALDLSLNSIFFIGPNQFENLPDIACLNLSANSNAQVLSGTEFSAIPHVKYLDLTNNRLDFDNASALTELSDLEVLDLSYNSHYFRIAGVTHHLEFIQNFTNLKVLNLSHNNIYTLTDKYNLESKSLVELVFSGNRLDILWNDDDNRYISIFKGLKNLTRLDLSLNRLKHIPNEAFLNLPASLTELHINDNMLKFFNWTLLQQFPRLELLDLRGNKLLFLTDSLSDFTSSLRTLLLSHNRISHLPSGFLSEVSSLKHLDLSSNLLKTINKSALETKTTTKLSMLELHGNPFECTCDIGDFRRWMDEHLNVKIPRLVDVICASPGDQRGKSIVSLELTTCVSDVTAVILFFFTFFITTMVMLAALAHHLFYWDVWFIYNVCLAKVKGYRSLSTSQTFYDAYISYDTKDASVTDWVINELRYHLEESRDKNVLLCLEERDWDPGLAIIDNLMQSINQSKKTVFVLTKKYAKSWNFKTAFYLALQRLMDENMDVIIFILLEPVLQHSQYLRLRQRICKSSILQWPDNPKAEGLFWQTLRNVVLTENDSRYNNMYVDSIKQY
Experiment: co-IP; THP-1 macrophages incubated with or without compound 10 (10 uM, 1 h), then TL8-506 (0.6 uM, 30 min); RIPA lysates incubated with mouse anti-TLR8 mAb 2 h at 4 C, protein A/G PLUS agarose overnight at 4 C, 4 washes with RIPA; Western blot for hTLR8 and MyD88; mouse IgG2b isotype control

binding: binds
Substance: MyD88 (from UniProt Q99836 1-296)
